At least one compound was matched to its structure with a doubt left.
Columns and labels:
[1] = system: Human T-cell Inflammation; experiment: T-cell inflammation inhibition assay (Anti-CD3 stimulation) in PBMC; conditions: Dexamethasone 100 nM inhibition control
[2] = system: Human T-cell Inflammation; experiment: T-cell inflammation inhibition assay (ConA and PHA stimulation) in PBMC; conditions: Dexamethasone 100 nM inhibition control

Structure (SMILES): C[C@@H]1C[C@H]2[C@@H]3CCC4=CC(=O)C=C[C@]4(C)[C@@]3(F)[C@@H](O)C[C@]2(C)[C@@]1(O)C(=O)CO [Dexamethasone, reference compound]
- cytokine /chemokine secretion [1]: decreased cytokine /chemokine secretion
- cytokine /chemokine secretion [2]: decreased cytokine /chemokine secretion

— patent publication EP4186500A1, “MEK INHIBITORS FOR THE PREVENTION AND TREATMENT OF LONG COVID SYNDROME” (Atriva Therapeutics GmbH, priority 2021, dated 2023)
